Measurements reported in the supplement of paper PMC11546906.
Counter-ions that a name gives are not always drawn. Some of the results follow. Repeats in this data set agree poorly, so a single value says little.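 FDA-approved drugs were each paired with colistin at one-eighth its MIC and screened against a multidrug-resistant, mcr-1-positive clinical E. coli isolate, with OD600 read after 24 h. Drug-free bacteria served as growth control, plain broth as blank. Combinations were active if OD600 dropped below 0.2.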

test system: Escherichia coli 42 (mcr-1-positive clinical isolate); assay: OD600 after 24 h growth with compound plus colistin (absorbance units (OD600)); higher = more bacterial growth (less inhibition); settings: first compound 25 µM; colistin concentration 0.5 ug/mL; incubation time 24 h; 37 °C

OD600, inactive:
CN(C)CC/C=C1/c2ccccc2COc2ccc(CC(=O)O)cc21 [Olopatadine hydrochloride] + CCC(C)CCCC(=O)N[C@@H](CCN)C(=O)N[C@H](C(=O)N[C@@H](CCN)C(=O)N[C@H]1CCNC(=O)[C@H]([C@@H](C)O)NC(=O)[C@H](CCN)NC(=O)[C@H](CCN)NC(=O)[C@H](CC(C)C)NC(=O)[C@@H](CC(C)C)NC(=O)[C@H](CCN)NC1=O)[C@@H](C)O [colistin] 1.17
COc1ccc2c3c1O[C@H]1C[C@@H](O)C=C[C@@]31CCN(C)C2 [Galanthamine hydrobromide] + CCC(C)CCCC(=O)N[C@@H](CCN)C(=O)N[C@H](C(=O)N[C@@H](CCN)C(=O)N[C@H]1CCNC(=O)[C@H]([C@@H](C)O)NC(=O)[C@H](CCN)NC(=O)[C@H](CCN)NC(=O)[C@H](CC(C)C)NC(=O)[C@@H](CC(C)C)NC(=O)[C@H](CCN)NC1=O)[C@@H](C)O [colistin] 1.14
COC(=O)Nc1nc2cc(C(=O)c3ccccc3)ccc2[nH]1 [Mebendazole] + CCC(C)CCCC(=O)N[C@@H](CCN)C(=O)N[C@H](C(=O)N[C@@H](CCN)C(=O)N[C@H]1CCNC(=O)[C@H]([C@@H](C)O)NC(=O)[C@H](CCN)NC(=O)[C@H](CCN)NC(=O)[C@H](CC(C)C)NC(=O)[C@@H](CC(C)C)NC(=O)[C@H](CCN)NC1=O)[C@@H](C)O [colistin] 1.15
C#C[C@]1(O)CC[C@H]2[C@@H]3CCC4=CC(=O)CC[C@@H]4[C@H]3CC[C@@]21CC [Levonorgestrel] + CCC(C)CCCC(=O)N[C@@H](CCN)C(=O)N[C@H](C(=O)N[C@@H](CCN)C(=O)N[C@H]1CCNC(=O)[C@H]([C@@H](C)O)NC(=O)[C@H](CCN)NC(=O)[C@H](CCN)NC(=O)[C@H](CC(C)C)NC(=O)[C@@H](CC(C)C)NC(=O)[C@H](CCN)NC1=O)[C@@H](C)O [colistin] 1.13
CC(=O)N1CCN(c2ccc(OCC3COC(Cn4ccnc4)(c4ccc(Cl)cc4Cl)O3)cc2)CC1 (centres undefined) [Ketoconazole] + CCC(C)CCCC(=O)N[C@@H](CCN)C(=O)N[C@H](C(=O)N[C@@H](CCN)C(=O)N[C@H]1CCNC(=O)[C@H]([C@@H](C)O)NC(=O)[C@H](CCN)NC(=O)[C@H](CCN)NC(=O)[C@H](CC(C)C)NC(=O)[C@@H](CC(C)C)NC(=O)[C@H](CCN)NC1=O)[C@@H](C)O [colistin] 1.1
CCC(CC)[C@H](NC(C)=O)[C@@H]1[C@H](O)[C@@H](C(=O)O)C[C@H]1NC(=N)N [Peramivir Trihydrate] + CCC(C)CCCC(=O)N[C@@H](CCN)C(=O)N[C@H](C(=O)N[C@@H](CCN)C(=O)N[C@H]1CCNC(=O)[C@H]([C@@H](C)O)NC(=O)[C@H](CCN)NC(=O)[C@H](CCN)NC(=O)[C@H](CC(C)C)NC(=O)[C@@H](CC(C)C)NC(=O)[C@H](CCN)NC1=O)[C@@H](C)O [colistin] 0.796
C[C@]12CCC(=O)C=C1[C@@H]1C[C@@H]1[C@H]1[C@@H]3[C@@H]4C[C@@H]4[C@@]4(CCC(=O)O4)[C@@]3(C)CC[C@@H]12 [Drospirenone] + CCC(C)CCCC(=O)N[C@@H](CCN)C(=O)N[C@H](C(=O)N[C@@H](CCN)C(=O)N[C@H]1CCNC(=O)[C@H]([C@@H](C)O)NC(=O)[C@H](CCN)NC(=O)[C@H](CCN)NC(=O)[C@H](CC(C)C)NC(=O)[C@@H](CC(C)C)NC(=O)[C@H](CCN)NC1=O)[C@@H](C)O [colistin] 1.1
CN(C)CCC=C1c2ccccc2COc2ccccc21 [Doxepin hydrochloride] + CCC(C)CCCC(=O)N[C@@H](CCN)C(=O)N[C@H](C(=O)N[C@@H](CCN)C(=O)N[C@H]1CCNC(=O)[C@H]([C@@H](C)O)NC(=O)[C@H](CCN)NC(=O)[C@H](CCN)NC(=O)[C@H](CC(C)C)NC(=O)[C@@H](CC(C)C)NC(=O)[C@H](CCN)NC1=O)[C@@H](C)O [colistin] 0.9
CC1(C)O[C@@H]2C[C@H]3[C@@H]4CCC5=CC(=O)C=C[C@]5(C)[C@@]4(F)[C@@H](O)C[C@]3(C)[C@]2(C(=O)CO)O1 [Triamcinolone acetonide] + CCC(C)CCCC(=O)N[C@@H](CCN)C(=O)N[C@H](C(=O)N[C@@H](CCN)C(=O)N[C@H]1CCNC(=O)[C@H]([C@@H](C)O)NC(=O)[C@H](CCN)NC(=O)[C@H](CCN)NC(=O)[C@H](CC(C)C)NC(=O)[C@@H](CC(C)C)NC(=O)[C@H](CCN)NC1=O)[C@@H](C)O [colistin] 1.04
S=c1nc[nH]c2nc[nH]c12 [6-Mercaptopurine hydrate] + CCC(C)CCCC(=O)N[C@@H](CCN)C(=O)N[C@H](C(=O)N[C@@H](CCN)C(=O)N[C@H]1CCNC(=O)[C@H]([C@@H](C)O)NC(=O)[C@H](CCN)NC(=O)[C@H](CCN)NC(=O)[C@H](CC(C)C)NC(=O)[C@@H](CC(C)C)NC(=O)[C@H](CCN)NC1=O)[C@@H](C)O [colistin] 1.1
O=C(O)CCCCCCCC(=O)O [Azelaic acid] + CCC(C)CCCC(=O)N[C@@H](CCN)C(=O)N[C@H](C(=O)N[C@@H](CCN)C(=O)N[C@H]1CCNC(=O)[C@H]([C@@H](C)O)NC(=O)[C@H](CCN)NC(=O)[C@H](CCN)NC(=O)[C@H](CC(C)C)NC(=O)[C@@H](CC(C)C)NC(=O)[C@H](CCN)NC1=O)[C@@H](C)O [colistin] 0.864
CN1C2CCCC1CC(NC(=O)c1nn(C)c3ccccc13)C2 (centres undefined) [Granisetron hydrochloride] + CCC(C)CCCC(=O)N[C@@H](CCN)C(=O)N[C@H](C(=O)N[C@@H](CCN)C(=O)N[C@H]1CCNC(=O)[C@H]([C@@H](C)O)NC(=O)[C@H](CCN)NC(=O)[C@H](CCN)NC(=O)[C@H](CC(C)C)NC(=O)[C@@H](CC(C)C)NC(=O)[C@H](CCN)NC1=O)[C@@H](C)O [colistin] 1.11
CC[C@@H]1C(=O)OC[C@@H]1Cc1cncn1C [Pilocarpine Hydrochloride] + CCC(C)CCCC(=O)N[C@@H](CCN)C(=O)N[C@H](C(=O)N[C@@H](CCN)C(=O)N[C@H]1CCNC(=O)[C@H]([C@@H](C)O)NC(=O)[C@H](CCN)NC(=O)[C@H](CCN)NC(=O)[C@H](CC(C)C)NC(=O)[C@@H](CC(C)C)NC(=O)[C@H](CCN)NC1=O)[C@@H](C)O [colistin] 0.988
O=C(O)COCCN1CCN([C@H](c2ccccc2)c2ccc(Cl)cc2)CC1 [Levocetirizine] + CCC(C)CCCC(=O)N[C@@H](CCN)C(=O)N[C@H](C(=O)N[C@@H](CCN)C(=O)N[C@H]1CCNC(=O)[C@H]([C@@H](C)O)NC(=O)[C@H](CCN)NC(=O)[C@H](CCN)NC(=O)[C@H](CC(C)C)NC(=O)[C@@H](CC(C)C)NC(=O)[C@H](CCN)NC1=O)[C@@H](C)O [colistin] 1.07
C[n+]1ccccc1/C=N/O [Pralidoxime Chloride] + CCC(C)CCCC(=O)N[C@@H](CCN)C(=O)N[C@H](C(=O)N[C@@H](CCN)C(=O)N[C@H]1CCNC(=O)[C@H]([C@@H](C)O)NC(=O)[C@H](CCN)NC(=O)[C@H](CCN)NC(=O)[C@H](CC(C)C)NC(=O)[C@@H](CC(C)C)NC(=O)[C@H](CCN)NC1=O)[C@@H](C)O [colistin] 1.19
CS(=O)(=O)OCCCCOS(C)(=O)=O [Busulfan] + CCC(C)CCCC(=O)N[C@@H](CCN)C(=O)N[C@H](C(=O)N[C@@H](CCN)C(=O)N[C@H]1CCNC(=O)[C@H]([C@@H](C)O)NC(=O)[C@H](CCN)NC(=O)[C@H](CCN)NC(=O)[C@H](CC(C)C)NC(=O)[C@@H](CC(C)C)NC(=O)[C@H](CCN)NC1=O)[C@@H](C)O [colistin] 1.17
CCCC(CCC)C(=O)O [Valproic acid sodium salt] + CCC(C)CCCC(=O)N[C@@H](CCN)C(=O)N[C@H](C(=O)N[C@@H](CCN)C(=O)N[C@H]1CCNC(=O)[C@H]([C@@H](C)O)NC(=O)[C@H](CCN)NC(=O)[C@H](CCN)NC(=O)[C@H](CC(C)C)NC(=O)[C@@H](CC(C)C)NC(=O)[C@H](CCN)NC1=O)[C@@H](C)O [colistin] 0.959
Clc1cccc(Cl)c1NC1=NCCN1 [Clonidine hydrochloride] + CCC(C)CCCC(=O)N[C@@H](CCN)C(=O)N[C@H](C(=O)N[C@@H](CCN)C(=O)N[C@H]1CCNC(=O)[C@H]([C@@H](C)O)NC(=O)[C@H](CCN)NC(=O)[C@H](CCN)NC(=O)[C@H](CC(C)C)NC(=O)[C@@H](CC(C)C)NC(=O)[C@H](CCN)NC1=O)[C@@H](C)O [colistin] 1.03
CO[C@@]1(NC(=O)CSCC#N)C(=O)N2C(C(=O)O)=C(CSc3nnnn3C)CS[C@@H]21 [Cefmetazole sodium] + CCC(C)CCCC(=O)N[C@@H](CCN)C(=O)N[C@H](C(=O)N[C@@H](CCN)C(=O)N[C@H]1CCNC(=O)[C@H]([C@@H](C)O)NC(=O)[C@H](CCN)NC(=O)[C@H](CCN)NC(=O)[C@H](CC(C)C)NC(=O)[C@@H](CC(C)C)NC(=O)[C@H](CCN)NC1=O)[C@@H](C)O [colistin] 0.978

A section taken from the entries so far, for reference:
OD600, inactive:
O=C(O)CCCCCCCC(=O)O [Azelaic acid] + CCC(C)CCCC(=O)N[C@@H](CCN)C(=O)N[C@H](C(=O)N[C@@H](CCN)C(=O)N[C@H]1CCNC(=O)[C@H]([C@@H](C)O)NC(=O)[C@H](CCN)NC(=O)[C@H](CCN)NC(=O)[C@H](CC(C)C)NC(=O)[C@@H](CC(C)C)NC(=O)[C@H](CCN)NC1=O)[C@@H](C)O [colistin] 0.864
CN1C2CCCC1CC(NC(=O)c1nn(C)c3ccccc13)C2 (centres undefined) [Granisetron hydrochloride] + CCC(C)CCCC(=O)N[C@@H](CCN)C(=O)N[C@H](C(=O)N[C@@H](CCN)C(=O)N[C@H]1CCNC(=O)[C@H]([C@@H](C)O)NC(=O)[C@H](CCN)NC(=O)[C@H](CCN)NC(=O)[C@H](CC(C)C)NC(=O)[C@@H](CC(C)C)NC(=O)[C@H](CCN)NC1=O)[C@@H](C)O [colistin] 1.11
